Measured values published in US12667824B2, “Carbon dioxide absorbent” (MITSUBISHI GAS CHEMICAL COMPANY, INC., priority 2020, dated 2026).

Test: Evaluation of absorption capacity for carbon dioxide from the air (desiccator)
Settings: 5 mmol amine, 100% by mass, 23° C., 50% RH, initial CO2 about 400 ppm; for Changes of CO2 Concentration 2 h: after 2 hours; for Changes of CO2 Concentration 24 h: after 24 hours

Row | Structure (SMILES) | Changes of CO2 Concentration 2 h [ppm] | Changes of CO2 Concentration 24 h [ppm]
1 | NCC1CCC(CN)CC1 (single isomer, unassigned) [Example 2, 1,4-bis(aminomethyl)cyclohexane] | 206 | 370
2 | NCC1CCC(CN)CC1 (single isomer, unassigned) [Example 3, 1,4-bis(aminomethyl)cyclohexane] | 186 | 371
3 | NCCNCCNCCN [Comparative Example 2, Triethylenetetramine, reference compound] | 165 | 294
4 | NCCCNCC1CCCC(CNCCCN)C1 (centres unmarked) [Example 5] | 193 | 279
